Where a name gives a salt, the structure may show the parent alone. Read-outs that look alike come from different tables or passages of the source. Out of some 3,300 compounds screened, about 95 (3%) showed an effect of 50% or more. The list shows a part of the results. Peptide text beside a SMILES is read from it.
System: HCoV-229E
Set-up: species or system Huh-7; HTS, protection from HCoV-229E induced cell death, luminescent cell viability (CellCounting-Lite 2.0), inhibition rate
Settings: 24 h post infection, 1 h compound pre-incubation, 10 µM, inhibitor

Structure (SMILES)	229E Inhibition rate [%]	229E Inhibition rate (229E Inhibition rate, 24 h) [%]
CC(=O)O[C@@H]1C[C@]23C4=CC[C@@]5(C)[C@H](C(=O)O)[C@@](C)([C@H](C)C(C)C)CC[C@]5(C)[C@H]4CC[C@H]2[C@@](C)(COC3O)[C@H]1O[C@@H]1O[C@H](CO)[C@@H](O)[C@H](O)[C@H]1O (some centres unmarked) [Enfumafungin]	11.3	
N[C@@H](CO)C(=O)O [L-Serine]	11.3	
CC(C(=O)O)c1ccccc1 (centres unmarked) [2-Phenylpropionic acid]	18.5	
C[C@@H]1O[C@@H](OC[C@H]2O[C@@H](OCCc3ccc(O)c(O)c3)[C@H](O)[C@@H](O[C@@H]3O[C@@H](C)[C@H](O)[C@@H](O)[C@H]3O)[C@@H]2OC(=O)/C=C/c2ccc(O)c(O)c2)[C@H](O)[C@H](O)[C@H]1O [Poliumoside]	6.3	
O=C(O)Cc1c[nH]c2ccccc12 [3-Indoleacetic acid]	5.1	
CC(=O)O[C@H]1C(=O)[C@@]2(C)[C@H]([C@H](OC(=O)c3ccccc3)[C@]3(O)C[C@H](OC(=O)[C@H](O)[C@@H](NC(=O)c4ccccc4)c4ccccc4)C(C)=C1C3(C)C)[C@]1(OC(C)=O)CO[C@@H]1C[C@@H]2O [Paclitaxel]		31
CC1=CC(=O)CC(C)(C)C1(O)/C=C/C(C)=C\C(=O)O (racemic) [(±)-Abscisic acid]		8.9
CC1(C)[C@@H](O[C@H]2O[C@H](C(=O)O)[C@@H](O)[C@H](O)[C@H]2O[C@@H]2O[C@H](C(=O)O)[C@@H](O)[C@H](O)[C@H]2O)CC[C@]2(C)[C@H]3C(=O)C=C4[C@@H]5C[C@@](C)(C(=O)O)CC[C@]5(C)CC[C@@]4(C)[C@]3(C)CC[C@@H]12 [Glycyrrhizic acid]		43
CCCCCCC/C=C\C(=O)O [(Z)-2-Decenoic acid]	19.8	
O=Cc1ccccc1O[C@@H]1O[C@H](CO)[C@@H](O)[C@H](O)[C@H]1O [Helicin]	12.3	
CCC(C)(C)C(=O)O[C@H]1C[C@@H](C)C=C2C=C[C@H](C)[C@H](CC[C@@H](O)C[C@@H](O)CC(=O)O)[C@H]21 [Simvastatin acid (ammonium)]	14.1	
N[C@H]1[C@H](O[C@H]2[C@H](O)[C@@H](N)[C@H](O[C@H]3[C@H](O)[C@@H](N)[C@H](O[C@@H]([C@H](O)[C@@H](N)C=O)[C@H](O)CO)O[C@@H]3CO)O[C@@H]2CO)O[C@H](CO)[C@@H](O)[C@@H]1O [Chitotetraose (tetrahydrochloride)]	0	
CCCCCC/C=C\CCCCCCCC(=O)O [Palmitoleic acid]	13	
O=C1/C(=C/c2ccc(O)c(O)c2)COc2cc(O)ccc21 [Sappanone A]	15.6	
CC1=CC(=O)C(C(C)C)=CC1=O [Thymoquinone]	21.8	
C[C@H](CC[C@@H](O[C@@H]1O[C@H](CO)[C@@H](O)[C@H](O)[C@H]1O[C@@H]1O[C@H](CO)[C@@H](O)[C@H](O)[C@H]1O)C(C)(C)O)[C@H]1CC[C@@]2(C)[C@H]3CC=C4[C@@H](CC[C@H](O[C@@H]5O[C@H](CO[C@@H]6O[C@H](CO)[C@@H](O)[C@H](O)[C@H]6O)[C@@H](O)[C@H](O)[C@H]5O)C4(C)C)[C@]3(C)[C@H](O)C[C@]12C [Mogroside IV]	16.7	
C[C@@H]1C[C@@H]([C@@H](O)C(C)(C)O)O[C@H]2C[C@@]3(C)C(=C12)C[C@H](O)[C@H]1[C@@]2(C)CCC(=O)C(C)(C)[C@@H]2CC[C@@]13C [Alisol F]	20.4	
CN[C@@H]1[C@H](O)[C@H](NC)[C@H]2O[C@@]3(O)C(=O)C[C@@H](C)O[C@H]3O[C@@H]2[C@H]1O [Spectinomycin (dihydrochloride)]	21.5	
COc1cc(/C=C/C(=O)O[C@H]2[C@H](O)[C@@H](CO)O[C@@]2(CO)O[C@H]2O[C@H](CO)[C@@H](O)[C@H](O)[C@H]2O)ccc1O [Sibiricose A5]	29.1	
O=C1C[C@@H](c2ccc(O)c(O)c2)Oc2cc(O)cc(O)c21 [Eriodictyol]	25.6	
CC(=O)N[C@@H](Cc1cnc[nH]1)C(=O)O [N-Acetyl-L-histidine (monohydrate)]	8.3	
CC(C)CCC[C@@H](C)[C@H]1CC[C@H]2[C@@H]3[C@H](O)C=C4C[C@@H](O)CC[C@]4(C)[C@H]3CC[C@]12C [7α-Hydroxycholesterol]	17	
C[C@H](CCCC(C)(C)O)[C@H]1CC[C@H]2[C@@H]3CC=C4C[C@@H](O)CC[C@]4(C)[C@H]3CC[C@]12C [25-Hydroxycholesterol]	3.1	
C[C@H](CCC(=O)NCCS(=O)(=O)O)[C@H]1CC[C@H]2[C@@H]3C[C@H](O)[C@@H]4C[C@H](O)CC[C@]4(C)[C@H]3CC[C@]12C [Taurohyodeoxycholic acid]	21.5	
CC(=O)OC/C=C(\C)CCC=C(C)C [Geranyl acetate]	33.5	

Molecules listed so far that have nitrogen in an aromatic ring (2):
Structure (SMILES)	229E Inhibition rate [%]	229E Inhibition rate (229E Inhibition rate, 24 h) [%]
O=C(O)Cc1c[nH]c2ccccc12 [3-Indoleacetic acid]	5.1	
CC(=O)N[C@@H](Cc1cnc[nH]1)C(=O)O [N-Acetyl-L-histidine (monohydrate)]	8.3	

Carrying on.

Structure (SMILES)	229E Inhibition rate [%]	229E Inhibition rate (229E Inhibition rate, 24 h) [%]
COC(=O)C1=CO[C@@H](O[C@@H]2O[C@H](CO)[C@@H](O)[C@H](O)[C@H]2O)[C@@H]2C(CO)=CC[C@H]12 [Geniposide]	0	
C=C(C)[C@@H](O)COc1c2ccoc2cc2oc(=O)ccc12 [Pangelin]	11.6	
OC[C@H]1NC[C@H](O)[C@@H](O)[C@@H]1O [1-Deoxynojirimycin]	8.1	
O=C(O)c1cn[nH]c1 [4-Carboxypyrazole]	6.1	
CC1=CCC(=O)O1 [α-Angelica lactone]	8.5	
COc1ccc(C(C)=O)c(O[C@@H]2O[C@H](CO[C@@H]3OC[C@H](O)[C@H](O)[C@H]3O)[C@@H](O)[C@H](O)[C@H]2O)c1 [Apiopaeonoside]	0	
CC1(C)O[C@H]2CC(=O)OC[C@]23[C@H]2CC[C@@]4(C)[C@H](c5ccoc5)OC(=O)[C@H]5O[C@]54[C@]2(C)C(=O)C[C@@H]13 [Limonin]	42.8	
C[C@@H]1O[C@@H](O[C@@H]2C(=O)c3c(O)cc(O)cc3O[C@@H]2c2ccc(O)c(O)c2)[C@H](O)[C@H](O)[C@H]1O [Isoastilbin]	5.5	
CC1=C(C(=O)Nc2ccccc2)SCCO1 [Carboxin]	16.7	
O=c1ccoc2cc(O)ccc12 [7-Hydroxy-4H-chromen-4-one]	10.9	
C=C1C[C@@]23CC[C@H]4[C@@](C)(CCC[C@@]4(C)C(=O)O[C@@H]4O[C@H](CO)[C@@H](O)[C@H](O[C@@H]5O[C@H](CO)[C@@H](O)[C@H](O)[C@H]5O)[C@H]4O[C@@H]4O[C@H](CO)[C@@H](O)[C@H](O)[C@H]4O)[C@@H]2CC[C@]1(O[C@@H]1O[C@H](CO)[C@@H](O)[C@H](O[C@@H]2O[C@H](CO)[C@@H](O)[C@H](O)[C@H]2O)[C@H]1O[C@@H]1O[C@H](CO)[C@@H](O)[C@H](O)[C@H]1O)C3 [Rebaudioside M]	19.5	
CC(C)=CCC[C@](C)(O[C@@H]1O[C@H](CO[C@@H]2OC[C@H](O)[C@H](O)[C@H]2O)[C@@H](O)[C@H](O)[C@H]1O)[C@H]1CC[C@]2(C)[C@@H]1[C@H](O)C[C@@H]1[C@@]3(C)CC[C@H](O)C(C)(C)[C@@H]3[C@@H](O)C[C@]12C [Ginsenoside F3]	11.2	
COc1ccc(O)cc1 [Mequinol]	18.7	
CCCCCCCCCCCCCCCCCCCCCCO [1-Docosanol]	13.6	
CN1c2ccccc2C(=O)N2CCc3c([nH]c4ccccc34)[C@@H]21 [Evodiamine]	40.6	
COc1ccc(-c2cc(=O)c3c(O)cc(O[C@@H]4O[C@H](CO)[C@@H](O)[C@H](O)[C@H]4O)cc3o2)cc1O [Diosmetin-7-O-β-D-glucopyranoside]	37.1	
CC(C)CCC[C@@H](C)[C@H]1CC[C@H]2[C@@H]3CC(=O)[C@H]4C[C@@H](O)CC[C@]4(C)[C@H]3CC[C@]12C [6-Ketocholestanol]	0	
C[C@@H]1CC[C@@]2(OC1)O[C@H]1C[C@H]3[C@@H]4CC=C5C[C@@H](O[C@@H]6O[C@H](CO)[C@@H](O)[C@H](O)[C@H]6O[C@@H]6O[C@@H](C)[C@H](O)[C@@H](O)[C@H]6O)CC[C@]5(C)[C@H]4CC[C@]3(C)[C@H]1[C@@H]2C [Prosapogenin A]	5.8	
COc1ccc2c(c1OC)CN(C)CCc1cc3c(cc1C(=O)C2)OCO3 [Allocryptopine]	8.9	
CC(C)C[C@H](NC(=O)[C@@H](O)[C@H](N)Cc1ccccc1)C(=O)O [Bestatin]		20.4
Cc1ncc(C[n+]2csc(CCO)c2C)c(N)n1 [Thiamine (hydrochloride)]		9.3
O=C1c2c(O)cccc2C([C@@H]2O[C@H](CO)[C@@H](O)[C@H](O)[C@H]2O)c2cc(CO)cc(O)c21 (some centres unmarked) [Aloin]	0	
N[C@@H](CCC(=O)O)C(=O)N[C@@H](Cc1c[nH]c2ccccc12)C(=O)O [Oglufanide] (H-Glu-Trp-OH)	42.6	
C[C@H](CCC(=O)NCC(=O)O)[C@H]1CC[C@H]2[C@@H]3[C@H](O)C[C@@H]4C[C@H](O)CC[C@]4(C)[C@H]3C[C@H](O)[C@]12C [Glycocholic acid]		22.3
CC(C)c1cc2c(c(O)c1O)[C@@]13CCCC(C)(C)[C@@H]1C[C@@H]2OC3=O [Carnosol]	0	

Source: paper PMC12431657, “Discovery and mechanistic insights of dibenzoylmethane as a broad spectrum inhibitor of coronavirus” (PLOS Pathogens, 2025)
